Consider six molecules from publication PMC5457515.

Chains of the proteins cited; added tags and fusions are not shown.
UniProt Q8N884: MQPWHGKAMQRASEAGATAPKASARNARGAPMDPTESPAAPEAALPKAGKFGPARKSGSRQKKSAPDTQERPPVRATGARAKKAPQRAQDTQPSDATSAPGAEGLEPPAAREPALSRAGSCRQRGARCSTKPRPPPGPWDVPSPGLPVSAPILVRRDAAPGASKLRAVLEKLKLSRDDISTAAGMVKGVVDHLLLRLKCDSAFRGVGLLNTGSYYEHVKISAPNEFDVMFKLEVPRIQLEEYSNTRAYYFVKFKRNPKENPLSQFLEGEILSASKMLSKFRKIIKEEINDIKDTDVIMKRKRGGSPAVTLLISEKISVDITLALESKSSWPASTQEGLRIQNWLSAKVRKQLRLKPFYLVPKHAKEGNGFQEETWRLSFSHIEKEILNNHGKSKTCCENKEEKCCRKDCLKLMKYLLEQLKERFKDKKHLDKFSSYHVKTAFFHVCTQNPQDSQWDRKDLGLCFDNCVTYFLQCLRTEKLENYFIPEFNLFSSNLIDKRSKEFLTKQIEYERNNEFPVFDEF
UniProt Q86WV6: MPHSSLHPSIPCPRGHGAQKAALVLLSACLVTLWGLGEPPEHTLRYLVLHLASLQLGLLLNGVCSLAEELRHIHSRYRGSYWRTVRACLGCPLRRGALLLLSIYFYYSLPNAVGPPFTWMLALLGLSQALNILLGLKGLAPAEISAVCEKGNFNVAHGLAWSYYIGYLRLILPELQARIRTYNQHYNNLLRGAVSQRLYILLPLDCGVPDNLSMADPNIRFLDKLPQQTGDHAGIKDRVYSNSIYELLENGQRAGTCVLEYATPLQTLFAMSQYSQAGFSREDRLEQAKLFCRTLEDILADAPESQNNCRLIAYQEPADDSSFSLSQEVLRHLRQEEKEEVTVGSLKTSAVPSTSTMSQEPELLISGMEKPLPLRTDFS

Experiment [1] has as its target cyclic GMP-AMP synthase (cGAS) (UniProt Q8N884). As to the kind of experiment: co-IP; overexpression system, coexpressed in HEK293 cells (Supplementary Fig. 6b,c; legend not shown).
Another experiment addresses T1, IRF3 (UniProt Q14653).
T1 sequence: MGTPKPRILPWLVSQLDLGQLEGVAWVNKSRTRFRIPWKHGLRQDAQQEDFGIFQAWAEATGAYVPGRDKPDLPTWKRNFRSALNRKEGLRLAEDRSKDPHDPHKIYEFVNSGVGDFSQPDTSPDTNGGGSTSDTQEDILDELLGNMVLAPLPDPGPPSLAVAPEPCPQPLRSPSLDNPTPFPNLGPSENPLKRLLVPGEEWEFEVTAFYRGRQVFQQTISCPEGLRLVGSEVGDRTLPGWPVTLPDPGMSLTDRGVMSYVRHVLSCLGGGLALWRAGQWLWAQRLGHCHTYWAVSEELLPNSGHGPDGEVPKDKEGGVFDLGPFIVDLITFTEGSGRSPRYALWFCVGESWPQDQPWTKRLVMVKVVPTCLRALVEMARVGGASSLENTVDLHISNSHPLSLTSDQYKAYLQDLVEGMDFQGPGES
The experiment is described as above.

Experiment [2] addresses STING, overexpressed (Supplementary Figs 6a and 9c), Q86WV6. Kind of experiment: co-IP; association of TBK1 with STING or MAVS, with overexpression of USP13 (Supplementary Fig. 9c; legend not shown). Particulars: remark: other sources report otherwise.
Experiment [3] addresses STING, endogenous in THP-1 cells (human (endogenous in THP-1)), Q86WV6. As to the kind of experiment: co-IP; endogenous proteins; IP with anti-STING, blot with anti-TBK1; THP-1 cells stably transfected with shUSP13 or shCon, HSV-1 0-12 h; Usp13+/+ and Usp13m/m BMDCs, HSV-1 0-10 h. The note with it: remark: other sources report otherwise.
The next experiment addresses HA-STING (UniProt Q86WV6). Kind of experiment: co-IP; HEK293 cells transfected 24 h with HA-STING (or STING truncates) and FLAG-tagged USP13 (or USP13 truncates); IP with anti-HA, blot with anti-FLAG or anti-HA.
In experiment [4] the target is T2, STING, endogenous in mouse BMDCs and MEFs (mouse (endogenous in BMDCs and MEFs)) (UniProt Q3TBT3).
T2 sequence: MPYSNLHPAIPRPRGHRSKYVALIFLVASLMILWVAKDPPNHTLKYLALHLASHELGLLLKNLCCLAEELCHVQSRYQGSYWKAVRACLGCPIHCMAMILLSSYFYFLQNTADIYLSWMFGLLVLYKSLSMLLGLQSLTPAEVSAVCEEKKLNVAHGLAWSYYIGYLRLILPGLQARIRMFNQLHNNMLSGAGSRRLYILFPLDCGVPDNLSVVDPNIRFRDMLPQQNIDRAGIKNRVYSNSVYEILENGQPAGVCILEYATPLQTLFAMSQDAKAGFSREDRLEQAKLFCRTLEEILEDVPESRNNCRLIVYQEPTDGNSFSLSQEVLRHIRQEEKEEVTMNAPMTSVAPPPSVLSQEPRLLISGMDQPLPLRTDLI
Kind of experiment: co-IP; endogenous proteins; IP with anti-STING (IgG as control), blot with anti-STING or anti-USP13; mouse BMDCs and MEFs without viral infection.

Experiment [5] addresses T2, STING, endogenous in mouse BMDCs and MEFs (mouse (endogenous in BMDCs and MEFs)). Kind of experiment: co-IP; endogenous proteins; IP with anti-STING, blot with anti-USP13; mouse BMDCs and MEFs after HSV-1 infection.

No constants are given. Whether binding was seen depends on the method and setting. Binding seen in cells or lysates may run through a third protein. Some binding calls cover weakened binding; strength is not graded here. For some assays here: Tags and fused reporters may be left off the sequences shown.

B1: USP13, overexpressed (Supplementary Figs 6 and 9c) (enzyme, UniProt Q92995 1-863)
chain: MQRRGALFGMPGGSGGRKMAAGDIGELLVPHMPTIRVPRSGDRVYKNECAFSYDSPNSEGGLYVCMNTFLAFGREHVERHFRKTGQSVYMHLKRHVREKVRGASGGALPKRRNSKIFLDLDTDDDLNSDDYEYEDEAKLVIFPDHYEIALPNIEELPALVTIACDAVLSSKSPYRKQDPDTWENELPVSKYANNLTQLDNGVRIPPSGWKCARCDLRENLWLNLTDGSVLCGKWFFDSSGGNGHALEHYRDMGYPLAVKLGTITPDGADVYSFQEEEPVLDPHLAKHLAHFGIDMLHMHGTENGLQDNDIKLRVSEWEVIQESGTKLKPMYGPGYTGLKNLGNSCYLSSVMQAIFSIPEFQRAYVGNLPRIFDYSPLDPTQDFNTQMTKLGHGLLSGQYSKPPVKSELIEQVMKEEHKPQQNGISPRMFKAFVSKSHPEFSSNRQQDAQEFFLHLVNLVERNRIGSENPSDVFRFLVEERIQCCQTRKVRYTERVDYLMQLPVAMEAATNKDELIAYELTRREAEANRRPLPELVRAKIPFSACLQAFSEPENVDDFWSSALQAKSAGVKTSRFASFPEYLVVQIKKFTFGLDWVPKKFDVSIDMPDLLDINHLRARGLQPGEEELPDISPPIVIPDDSKDRLMNQLIDPSDIDESSVMQLAEMGFPLEACRKAVYFTGNMGAEVAFNWIIVHMEEPDFAEPLTMPGYGGAASAGASVFGASGLDNQPPEEIVAIITSMGFQRNQAIQALRATNNNLERALDWIFSHPEFEEDSDFVIEMENNANANIISEAKPEGPRVKDGSGTYELFAFISHMGTSTMSGHYICHIKKEGRWVIYNDHKVCASERPPKDLGYMYFYRRIPS
In the case of B1, the binding entry (in experiment [1]; in the experiment with IRF3) was “binds” in each case.

B2: TBK1 (Supplementary Fig. 9c), Q9UHD2 1-729 (enzyme)
chain: MQSTSNHLWLLSDILGQGATANVFRGRHKKTGDLFAIKVFNNISFLRPVDVQMREFEVLKKLNHKNIVKLFAIEEETTTRHKVLIMEFCPCGSLYTVLEEPSNAYGLPESEFLIVLRDVVGGMNHLRENGIVHRDIKPGNIMRVIGEDGQSVYKLTDFGAARELEDDEQFVSLYGTEEYLHPDMYERAVLRKDHQKKYGATVDLWSIGVTFYHAATGSLPFRPFEGPRRNKEVMYKIITGKPSGAISGVQKAENGPIDWSGDMPVSCSLSRGLQVLLTPVLANILEADQEKCWGFDQFFAETSDILHRMVIHVFSLQQMTAHKIYIHSYNTATIFHELVYKQTKIISSNQELIYEGRRLVLEPGRLAQHFPKTTEENPIFVVSREPLNTIGLIYEKISLPKVHPRYDLDGDASMAKAITGVVCYACRIASTLLLYQELMRKGIRWLIELIKDDYNETVHKKTEVVITLDFCIRNIEKTVKVYEKLMKINLEAAELGEISDIHTKLLRLSSSQGTIETSLQDIDSRLSPGGSLADAWAHQEGTHPKDRNVEKLQVLLNCMTEIYYQFKKDKAERRLAYNEEQIHKFDKQKLYYHATKAMTHFTDECVKKYEAFLNKSEEWIRKMLHLRKQLLSLTNQCFDIEEEVSKYQEYTNELQETLPQKMFTASSGIKHTMTPIYPSSNTLVEMTLGMKKLKEEMEGVVKELAENNHILERFGSLTMDGGLRNVDCL
In the case of B2, the binding entry in experiment [2] is “binds”.

B3: TBK1, endogenous in THP-1 cells, Q9UHD2 1-729 (enzyme)
chain: B2 chain
Consider B3, for which, in experiment [3], the binding entry was “binds”.

B4: FLAG-tagged USP13 truncate, C-terminal domain (aa625-863) (domain or fragment, UniProt Q92995 625-863)
chain: ELPDISPPIVIPDDSKDRLMNQLIDPSDIDESSVMQLAEMGFPLEACRKAVYFTGNMGAEVAFNWIIVHMEEPDFAEPLTMPGYGGAASAGASVFGASGLDNQPPEEIVAIITSMGFQRNQAIQALRATNNNLERALDWIFSHPEFEEDSDFVIEMENNANANIISEAKPEGPRVKDGSGTYELFAFISHMGTSTMSGHYICHIKKEGRWVIYNDHKVCASERPPKDLGYMYFYRRIPS
Turning to B4, in the experiment with HA-STING, the binding entry is reported as “binds”.

B5: FLAG-tagged USP13 truncate, N-terminal domain (aa1-624) (domain or fragment, UniProt Q92995 1-624)
chain: MQRRGALFGMPGGSGGRKMAAGDIGELLVPHMPTIRVPRSGDRVYKNECAFSYDSPNSEGGLYVCMNTFLAFGREHVERHFRKTGQSVYMHLKRHVREKVRGASGGALPKRRNSKIFLDLDTDDDLNSDDYEYEDEAKLVIFPDHYEIALPNIEELPALVTIACDAVLSSKSPYRKQDPDTWENELPVSKYANNLTQLDNGVRIPPSGWKCARCDLRENLWLNLTDGSVLCGKWFFDSSGGNGHALEHYRDMGYPLAVKLGTITPDGADVYSFQEEEPVLDPHLAKHLAHFGIDMLHMHGTENGLQDNDIKLRVSEWEVIQESGTKLKPMYGPGYTGLKNLGNSCYLSSVMQAIFSIPEFQRAYVGNLPRIFDYSPLDPTQDFNTQMTKLGHGLLSGQYSKPPVKSELIEQVMKEEHKPQQNGISPRMFKAFVSKSHPEFSSNRQQDAQEFFLHLVNLVERNRIGSENPSDVFRFLVEERIQCCQTRKVRYTERVDYLMQLPVAMEAATNKDELIAYELTRREAEANRRPLPELVRAKIPFSACLQAFSEPENVDDFWSSALQAKSAGVKTSRFASFPEYLVVQIKKFTFGLDWVPKKFDVSIDMPDLLDINHLRARGLQPGEE
Consider B5, for which the binding result in the experiment with HA-STING is “binds”.

B6: USP13, endogenous in mouse BMDCs and MEFs (enzyme, UniProt Q5BKP2 1-858)
chain: MQRRGALFSVPGGGGKMAAGDLGELLVPHMPTIRVPRSGDRVYKNECAFSYDSPNSEGGLYVCMNTFLAFGREHVERHFRKTGQSVYMHLKRHMREKVRGASGGALPKRRNSKIFLDLDMDDDLNSDDYEYEDEAKLVIFPDHYEIALPNIEELPALVTIACDAVLSSKSPYRKQDPDTWENEVPVSKYANNLVQLDNGVRIPPSGWKCARCDLRENLWLNLTDGSVLCGKWFFDSSGGNGHALEHYRDMGYPLAVKLGTITPDGADVYSFQEEGPVSDPHLAKHLAHFGIDMLHTQGTENGLRDNDIKPRVSEWEVIQESGTKLKPMYGPGYTGLKNLGNSCYLSSVMQAIFSIPEFQRAYVGNLPRIFDYSPLDPTQDFNTQMTKLGHGLLSGQYSKPPVKSELIEQVMKEEHKPQQNGISPRMFKAFVSKSHPEFSSNRQQDAQEFFLHLVNLVERNRIGSENPSDVFRFLVEERIQCCQTRKVRYTERVDYLMQLPVAMEAATNKDELITYELMRREAEANRRPLPELVRAKIPFSACLQAFAEPDNVDDFWSSALQAKSAGVKTSRFASFPEYLVVQIKKFTFGLDWVPRKFDVSIDMPDLLDISHLRARGLQPGEEELPDISPPIVIPDDSKDRLMNQLIDPSDIDESSVMQLAEMGFPLEACRKAVYFTGNTGAEVAFNWIIVHMEEPDFAEPLAIPGYGGAGASVFGATGLDNQPPEEIVAIITSMGFQRNQAVQALQATNHNLERALDWIFSHPEFEEDSDFVIEMENNANANIVSEAKPEGPRVKDGSGMYELFAFISHMGTSTMSGHYVCHIKKEGRWVIYNDHKVCASERPPKDLGYMYFYRRIPS
As to B6, the binding entry is listed as “binds” in experiment [4] and “binds weakly” in experiment [5].
